# Experimental data: PubChem BioAssay AID652243 (Drosophila RNAi Screening Center, 2013)
# Aim: 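Fly regulators of androgen-dependent reporter output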 (primary screen)
# Cell system: Drosophila S2R+ cells
# Knock-down reagent: long dsRNA against Drosophila genes
# Duration: 72 h (48 h, then 24 h hormone)
# Challenge: synthetic androgen R1881 at 10 nM for 24 h
# Measured: 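Per-well raw luminescence of the androgen-driven firefly reporter and of the Renilla control, two replicates each, without normalisation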
# Reading the numbers: firefly reporter light: higher = more light from androgen-responsive reporter; Renilla control light: higher = more constitutive control signal (cell number, transfection)
# Rule for the call: 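Hit when the log firefly-to-Renilla ratio dropped or increased by a fixed fold versus the mean of GFP or LacZ controls across duplicate plates; lowering cut given as 1.5 and as 3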
# Meaning of the calls: active = hit: reporter lowered or raised; inactive = no hit
# The deposit covers about 24,000 reagents; below is a random part of those with a known target gene and a result. Of all reagents, 246 (1%) were called active. 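Plates not normalised; calls are printed but the firefly/Renilla ratio behind them is not deposited; fold cut for lowering reported inconsistently.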 Raw values are not corrected between plates. Not given: the amount of reagent.
gene,PubChem SID,"firefly reporter light, replicate 1","firefly reporter light, replicate 2","Renilla control light, replicate 1","Renilla control light, replicate 2",call
CG2698,SID104195239,1.50e5,1.40e5,3.35e6,2.29e6,inactive
CG42818,SID104181755,1.86e5,1.40e5,2.64e6,2.05e6,inactive
Inx7,SID104198576,2.04e5,3.39e5,3.10e6,2.67e6,inactive
Inx7,SID104203035,8.01e5,6.66e5,5.72e5,4.47e5,inactive
Inx7,SID104216560,9.29e5,9.12e5,1.39e6,1.42e6,inactive
CG31871,SID104182359,2.64e5,2.15e5,1.87e6,1.78e6,inactive
CG31871,SID104182363,1.04e5,95415,7.35e5,8.57e5,inactive
CG31871,SID104205163,2.09e5,2.49e5,7.37e5,7.52e5,inactive
Lsd-2,SID104199935,88725,1.26e5,8.19e5,1.12e6,inactive
Lsd-2,SID104207445,4.66e5,3.50e5,1.24e6,8.45e5,inactive
ATPsyndelta,SID104198040,1.56e5,2.32e5,2.12e6,2.92e6,inactive
CG31286,SID104205271,2.64e5,2.48e5,8.13e5,7.60e5,inactive
org-1,SID104202331,9.75e5,1.06e6,1.01e6,1.01e6,inactive
org-1,SID104204315,2.62e5,3.62e5,8.43e5,7.06e5,inactive
CG6763,SID104195902,1.26e5,1.48e5,1.96e6,1.82e6,inactive
CG6763,SID104203126,5.84e5,8.85e5,8.57e5,9.90e5,inactive
igl,SID104187423,1.21e6,8.39e5,2.79e6,2.43e6,inactive
igl,SID104207505,6.06e5,5.50e5,1.85e6,1.52e6,inactive
asrij,SID104183967,2.51e5,2.80e5,2.07e6,1.28e6,inactive
Ugt303A1,SID104195433,1.87e5,2.24e5,2.16e6,2.78e6,inactive
Rcd-1,SID104199361,1.89e5,1.64e5,4.12e5,2.82e5,inactive
pgc,SID104183891,3.13e5,2.59e5,1.39e6,1.16e6,inactive
CG5334,SID104199733,6.56e5,4.71e5,3.91e6,3.77e6,inactive
btz,SID104194358,18207,13502,1.81e5,1.36e5,inactive
btz,SID104202822,9.91e5,7.88e5,1.17e6,9.03e5,inactive
Megf8,SID104182850,7.10e5,8.62e5,1.62e6,1.71e6,inactive
CG8668,SID104182893,5.86e5,8.30e5,1.43e6,1.13e6,inactive
CG8668,SID104203493,8.71e5,8.36e5,9.44e5,9.23e5,inactive
Eph,SID104196956,2.06e5,3.45e5,3.21e6,2.84e6,inactive
Eph,SID104214343,,,,,inactive
Eph,SID104214344,,,,,inactive
bsf,SID104181827,7.29e5,1.21e6,1.26e6,1.29e6,inactive
bnb,SID104200106,85191,85302,6.94e5,7.80e5,inactive
bnb,SID104206167,2.02e5,2.80e5,4.65e5,8.57e5,inactive
CG30151,SID104185680,1.09e5,96900,2.14e5,1.83e5,inactive
CG30151,SID104203380,9.42e5,9.89e5,8.45e5,7.19e5,inactive
CG14400,SID104182176,1.01e5,1.24e5,1.06e6,9.18e5,inactive
CG33177,SID104199741,5.32e5,6.17e5,3.24e6,3.17e6,inactive
Poxn,SID104185381,1.06e5,1.53e5,2.02e5,3.11e5,inactive
Poxn,SID104187304,78835,1.11e5,1.83e6,1.83e6,inactive
Poxn,SID104202908,4.11e5,4.02e5,6.63e5,6.50e5,inactive

Part of the list above in another layout.
CG2698 [SID104195239]
- firefly reporter light, replicate 1: 1.50e5
- firefly reporter light, replicate 2: 1.40e5
- Renilla control light, replicate 1: 3.35e6
- Renilla control light, replicate 2: 2.29e6
- call: inactive

CG42818 [SID104181755]
- firefly reporter light, replicate 1: 1.86e5
- firefly reporter light, replicate 2: 1.40e5
- Renilla control light, replicate 1: 2.64e6
- Renilla control light, replicate 2: 2.05e6
- call: inactive
